This passage reports binding results from patent publication US20080064630A1.

Chains of the proteins cited; added tags and fusions are not shown. Lines headed by an entry give the natural chain unless they say otherwise; changes in a name come on top.
UniProt P01241: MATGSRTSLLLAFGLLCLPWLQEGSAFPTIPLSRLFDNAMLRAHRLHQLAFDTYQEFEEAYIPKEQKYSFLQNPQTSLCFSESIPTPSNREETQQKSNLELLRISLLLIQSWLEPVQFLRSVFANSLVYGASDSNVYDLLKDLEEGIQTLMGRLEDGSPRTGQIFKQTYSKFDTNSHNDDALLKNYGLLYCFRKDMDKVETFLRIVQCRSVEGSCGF

The experiment concerns the target T1, α2-macroglobulin (UniProt P01023).
T1 sequence (looked up): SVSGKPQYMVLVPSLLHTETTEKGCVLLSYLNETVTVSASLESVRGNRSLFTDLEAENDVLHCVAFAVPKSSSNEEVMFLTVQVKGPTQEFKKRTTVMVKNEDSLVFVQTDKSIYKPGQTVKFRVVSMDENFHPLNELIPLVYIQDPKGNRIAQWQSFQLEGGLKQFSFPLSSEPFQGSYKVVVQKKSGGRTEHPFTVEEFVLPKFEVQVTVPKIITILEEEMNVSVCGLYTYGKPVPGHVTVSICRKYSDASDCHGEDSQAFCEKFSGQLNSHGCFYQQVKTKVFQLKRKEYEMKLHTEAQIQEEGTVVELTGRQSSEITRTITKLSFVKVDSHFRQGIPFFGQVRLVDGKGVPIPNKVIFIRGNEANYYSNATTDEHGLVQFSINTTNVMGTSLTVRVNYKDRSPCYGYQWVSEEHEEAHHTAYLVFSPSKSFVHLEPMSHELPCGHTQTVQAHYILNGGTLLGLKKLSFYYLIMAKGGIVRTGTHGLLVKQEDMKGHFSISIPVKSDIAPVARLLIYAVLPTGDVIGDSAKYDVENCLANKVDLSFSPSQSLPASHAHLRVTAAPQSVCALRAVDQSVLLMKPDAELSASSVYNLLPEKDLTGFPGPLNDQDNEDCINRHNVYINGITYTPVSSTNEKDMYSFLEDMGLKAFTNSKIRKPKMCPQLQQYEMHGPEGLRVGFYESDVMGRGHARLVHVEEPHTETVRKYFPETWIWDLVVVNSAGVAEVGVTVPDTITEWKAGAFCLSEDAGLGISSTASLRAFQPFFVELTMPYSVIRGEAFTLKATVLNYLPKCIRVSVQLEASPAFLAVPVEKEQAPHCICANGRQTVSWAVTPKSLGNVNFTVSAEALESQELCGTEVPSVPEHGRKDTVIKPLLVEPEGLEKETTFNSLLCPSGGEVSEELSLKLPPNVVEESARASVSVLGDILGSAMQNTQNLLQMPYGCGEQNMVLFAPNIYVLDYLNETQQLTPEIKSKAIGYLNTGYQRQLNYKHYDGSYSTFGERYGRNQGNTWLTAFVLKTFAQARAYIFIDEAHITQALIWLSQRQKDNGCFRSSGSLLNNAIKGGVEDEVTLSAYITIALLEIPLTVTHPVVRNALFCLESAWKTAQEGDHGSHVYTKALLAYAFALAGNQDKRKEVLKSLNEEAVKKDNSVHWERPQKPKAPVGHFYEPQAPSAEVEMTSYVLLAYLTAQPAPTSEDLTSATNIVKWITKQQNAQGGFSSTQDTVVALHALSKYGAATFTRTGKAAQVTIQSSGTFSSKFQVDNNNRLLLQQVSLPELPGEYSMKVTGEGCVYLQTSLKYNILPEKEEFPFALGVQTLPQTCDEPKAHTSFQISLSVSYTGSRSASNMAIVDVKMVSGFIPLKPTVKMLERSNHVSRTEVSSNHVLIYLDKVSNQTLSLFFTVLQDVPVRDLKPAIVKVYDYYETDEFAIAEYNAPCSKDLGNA
The experiment is described as follows: SPR (Biacore 3000), α2-macroglobulin amine-coupled to a CM5 chip, analyte injected at 1500 nM, 10 min association and 9 min dissociation, reference flow cell subtracted. In general terms: SPR reads the build-up and loss of mass on a sensor chip optically.

Results are given in words; binding and its absence hold for the method and conditions named. Some binding calls cover weakened binding; strength is not graded here.

Take OGP-hGH (from UniProt P01241 27-217): the binding entry is recorded as “binds”.
